This note sets out measurements from PMC4977824.

For the assay, the target named is DB::DLG-1 second PDZ domain (C. elegans). Put plainly: two-hybrid; DB fusions in pGBTK7 and AD fusions in pACT2 co-transformed into yeast strain Y190, X-gal filter assay.

No constants are given. Whether binding was seen depends on the method and setting. A result given as binding can be weak or reduced; the word gives no strength. Tags and fused reporters may be left off the sequences shown.

B1: AD::ATAD-3 aa388-595 (domain or fragment, UniProt Q20748 388-595)
chain: AIHKVFDWASKSRKGLIVFIDEADAFLQKRSKNGMSEDTRAALNAFLFRTGEQSRKFMLVVASNQPEQFDWAVNDRFDQLVEFTLPGMEERERILLQYFNEHIVTPATSGSRSQRLKLDNFDWVAKCNEVAKKTSGMSGRELSKLVIGWQASAYASETGVLTEAIVDRNTADAMVQHEHKMEWLEKEQLKARNQEVKFGTTLKRETAV
Take B1: the binding entry was “binds”.
